Measurements from paper PMC6628159 (Marine Drugs, 2019).

The chains behind the UniProt entries cited, without tags or fusion partners. Where a name states a change or a piece, a line headed by the entry shows the natural chain unless it says otherwise.
UniProt O15379: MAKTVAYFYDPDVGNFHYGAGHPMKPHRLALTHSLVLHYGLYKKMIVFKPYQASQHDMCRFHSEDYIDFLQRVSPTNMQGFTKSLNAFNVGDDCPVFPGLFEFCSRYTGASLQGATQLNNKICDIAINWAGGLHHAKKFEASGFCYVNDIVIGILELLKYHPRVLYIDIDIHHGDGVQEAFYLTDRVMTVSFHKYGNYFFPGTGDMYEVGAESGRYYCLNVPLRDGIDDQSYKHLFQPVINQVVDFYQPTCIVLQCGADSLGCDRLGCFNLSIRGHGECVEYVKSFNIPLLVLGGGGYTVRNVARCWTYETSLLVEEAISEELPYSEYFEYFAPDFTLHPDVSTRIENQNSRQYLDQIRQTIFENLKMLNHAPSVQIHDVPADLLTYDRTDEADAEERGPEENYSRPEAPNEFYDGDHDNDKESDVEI

Molecular target: T1, recombinant human HDAC3 (Homo sapiens, UniProt O15379)
T1 construct: purchased BPS Biosciences
Test: Recombinant human HDAC3 enzymatic assay (Ac-peptide-AMC, fluorescence)
Type: biochemical
Details: IC50 ± SD HDAC3, 10-dose IC50 mode in duplicate, threefold serial dilution; 60 min reaction

Work on CCCCCCCC(=O)SCC/C=C/[C@@H]1CC(=O)NCc2nc(cs2)C2=N[C@@](C)(CS2)C(=O)N[C@@H](C(C)C)C(=O)O1 [Largazole, reference compound] yielded an IC50 of 2 ± 0.028 µM.
